Assay results reported in US9822179B2, “Recombinant TNF ligand family member polypeptides with antibody binding domain and uses therefor” (UNIVERSITAT STUTTGART, priority 2011, dated 2017).
Some entries share one result that the patent states for a list of compounds.

Assay: Size exclusion chromatography (gel filtration) of purified proteins
Format: physicochemical
Details: SEQ ID NO: 96 both with and without glycosylation

B1: SEQ ID NO: 104: single chain TRAIL, three copies of TRAIL 95-281 linked by (GGGS)2 linkers, N-terminal FLAG tag, no component B (protein)
chain: TSEETISTVQEKQQNISPLVRERGPQRVAAHITGTRGRSNTLSSPNSKNEKALGRKINSWESSRSGHSFLSNLHLRNGELVIHEKGFYYIYSQTYFRFQEEIKENTKNDKQMVQYIYKYTSYPDPILLMKSARNSCWSKDAEYGLYSIYQGGIFELKENDRIFVSVTNEHLIDMDHEASFFGAFLVGGGGSGGGSTSEETISTVQEKQQNISPLVRERGPQRVAAHITGTRGRSNTLSSPNSKNEKALGRKINSWESSRSGHSFLSNLHLRNGELVIHEKGFYYIYSQTYFRFQEEIKENTKNDKQMVQYIYKYTSYPDPILLMKSARNSCWSKDAEYGLYSIYQGGIFELKENDRIFVSVTNEHLIDMDHEASFFGAFLVGGGGSGGGSTSEETISTVQEKQQNISPLVRERGPQRVAAHITGTRGRSNTLSSPNSKNEKALGRKINSWESSRSGHSFLSNLHLRNGELVIHEKGFYYIYSQTYFRFQEEIKENTKNDKQMVQYIYKYTSYPDPILLMKSARNSCWSKDAEYGLYSIYQGGIFELKENDRIFVSVTNEHLIDMDHEASFFGAFLVG
modifications: scTRAIL fusion protein
notes: single chain TRAIL, three copies of TRAIL 95-281 linked by (GGGS)2 linkers, N-terminal FLAG tag, no component B
- share of protein that exists as a monomer: > 94%
